Results deposited as PubChem BioAssay AID504784 (Drosophila RNAi Screening Center, 2011)
Screen: 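Genome-wide knock-down for genes giving too much or too little stored lipid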 (primary screen). Cell system: Drosophila Kc167 embryonic cells. Reagent: long dsRNA against Drosophila genes, about 250 ng dsRNA per well. Time to read-out: 4 days. Challenge: cells fed 400 µM oleic acid bound to BSA. Measurement: 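Microscope images give a droplet-to-nucleus area ratio, taken as log and converted to a screen-wide B-score; higher values mean greater lipid storage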. Scale: droplet/nuclear area B-score: higher = more stored lipid (overstorage).
The screen tested about 17,000 reagents; this is an unselected part of those that have a named target and a result. 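Each column is one replicate's B-score; the combined score over replicates was not deposited, so single values may mislead.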 Reagents against one gene are numbered here. Names joined by + are all predicted targets of the reagent.

gene knocked down | reagent no. | droplet/nuclear area B-score, replicate 1 | droplet/nuclear area B-score, replicate 2 | droplet/nuclear area B-score, replicate 3
CG17768 + LSm-4 | 1 | 1.02 | -1.22 | –
CG14011 | 1 | -2.65 | 1.96 | –
CG6565 | 1 | -0.981 | 1.36 | –
JMJD5 | 1 | -1.17 | -0.046 | –
CycY | 1 | 0.654 | 0.702 | –
comm2 | 1 | 0.103 | -2.23 | –
comm2 | 2 | -0.751 | 0.661 | –
Ugt35D1 | 1 | -0.857 | 2.27 | –
CG8008 | 1 | -1.61 | 0.354 | –
Rap2l | 1 | -0.619 | 0.56 | –
CG5439 | 1 | -0.0396 | -0.00232 | –
CG14684 | 1 | -0.148 | 0.342 | –
roh | 1 | 1.41 | 3.37 | –
CG14851 | 1 | -0.112 | 0.354 | –
CG14851 | 2 | 0.848 | 0.0438 | –
zye | 1 | -0.452 | 0.212 | –
CG14882 | 1 | 0.00474 | 1.27 | –
CG33476 | 1 | 1.71 | 0.207 | –
CG1640 | 1 | -0.0636 | -1.49 | 1.08
CG11458 | 1 | -0.336 | -0.658 | –
CG10417 | 1 | -0.701 | 1.24 | –
CG3748 | 1 | 0.763 | 0.714 | –
Doc2 | 1 | -1.53 | -0.277 | –
RnrS | 1 | 7.56 | -1.26 | –
CG15579 | 1 | -0.92 | -0.262 | –
CG14427 | 1 | 0.205 | 0.0469 | –
CG18094 | 1 | 0.822 | 1.34 | –
CG15927 | 1 | 0.0203 | 0.918 | 3.79
CG16700 | 1 | -1.05 | 1.22 | –
CG15084 | 1 | -2.83 | -5.73 | -1.11
CG15084 | 2 | 0.345 | 2.17 | –
CG4281 | 1 | -0.258 | 1.34 | –
Gasp | 1 | -0.738 | 1.1 | –
abs | 1 | -0.796 | -1.24 | -0.668
CG14118 | 1 | 0.537 | 0.637 | –
mRpS23 | 1 | 0.373 | 2.07 | –
CG10222 | 1 | 0.0442 | -0.684 | –
trp | 1 | -0.0457 | – | –
CG12594 | 1 | 1.8 | -0.383 | –
Acp24A4 | 1 | -0.341 | 0.281 | –
CG33191 + Pif1B | 1 | 0.0251 | -0.1 | –
Slc25A46a | 1 | -0.565 | -0.641 | -0.527
CG11593 | 1 | 0.575 | -0.291 | –
CG33722 + CG18749 | 1 | -0.695 | 0.738 | –
CG33722 + CG18749 | 2 | -0.685 | -1.69 | –
CG12107 | 1 | 0.303 | -2.29 | –
CG9147 | 1 | -2.24 | -0.00773 | –
CG31463 | 1 | 0.0108 | -0.52 | –
MED17 | 1 | -0.903 | -0.215 | –

In a second layout: results already given
CG8008
- droplet/nuclear area B-score, replicate 1: -1.61
- droplet/nuclear area B-score, replicate 2: 0.354

Rap2l
- droplet/nuclear area B-score, replicate 1: -0.619
- droplet/nuclear area B-score, replicate 2: 0.56

CG5439
- droplet/nuclear area B-score, replicate 1: -0.0396
- droplet/nuclear area B-score, replicate 2: -0.00232

CG14684
- droplet/nuclear area B-score, replicate 1: -0.148
- droplet/nuclear area B-score, replicate 2: 0.342

roh
- droplet/nuclear area B-score, replicate 1: 1.41
- droplet/nuclear area B-score, replicate 2: 3.37

CG14851 #1
- droplet/nuclear area B-score, replicate 1: -0.112
- droplet/nuclear area B-score, replicate 2: 0.354

CG14851 #2
- droplet/nuclear area B-score, replicate 1: 0.848
- droplet/nuclear area B-score, replicate 2: 0.0438

zye
- droplet/nuclear area B-score, replicate 1: -0.452
- droplet/nuclear area B-score, replicate 2: 0.212

CG14882
- droplet/nuclear area B-score, replicate 1: 0.00474
- droplet/nuclear area B-score, replicate 2: 1.27

CG33476
- droplet/nuclear area B-score, replicate 1: 1.71
- droplet/nuclear area B-score, replicate 2: 0.207

Further reagents follow.
gene knocked down | reagent no. | droplet/nuclear area B-score, replicate 1 | droplet/nuclear area B-score, replicate 2 | droplet/nuclear area B-score, replicate 3
CrzR | 1 | 0.694 | 0.747 | –
CrzR | 2 | 2.13 | 0.378 | –
Eig71Ee | 1 | -1.3 | 0.00918 | –
CG8993 | 1 | -0.772 | -0.029 | –
Gr85a | 1 | 0.106 | -1.22 | –
CG7387 | 1 | 0.88 | -0.721 | –
san | 1 | 0.705 | 2.01 | –
Cyp12d1-d + Cyp12d1-p | 1 | 1.23 | -0.119 | –
HERC2 | 1 | -1.3 | 0.255 | –
MsR1 | 1 | 0.661 | -0.172 | –
CAH5 | 1 | 0.321 | – | –
CG42566 | 1 | -0.474 | -1.29 | –
Noc2 | 1 | 0.492 | -1.18 | –
ND-19 | 1 | 1.33 | -0.589 | -0.287
CG32271 | 1 | -1.13 | -1.18 | –
CG11698 | 1 | – | -1.5 | –
Fbp2 | 1 | 0.644 | 0.302 | –
sev | 1 | 1.24 | 1.22 | -0.588
l(1)10Bb | 1 | -1.54 | -0.029 | -1.23
CG7728 | 1 | 0.803 | 0.0147 | 0.231
CG16952 | 1 | -1.35 | 0.00109 | –
CG13044 | 1 | -0.245 | 0.00769 | –
opa | 1 | 1.1 | -0.582 | –
opa | 2 | -3.6 | 0.415 | –
opa | 3 | -1.76 | -1.11 | –
CG1288 | 1 | -0.871 | -0.808 | –
CG14439 | 1 | -0.583 | 0.727 | –
CG14220 | 1 | -1.27 | -1.35 | –
CG14180 (retired record) | 1 | -1.57 | -2 | –
CG4627 | 1 | 0.216 | 0.859 | –
Tl | 1 | -1.06 | -0.688 | –
CG13247 | 1 | -0.89 | -1.55 | –
Patsas | 1 | -0.0355 | -0.219 | –
CG11438 | 1 | 0.242 | 1.35 | –
GstO3 | 1 | -0.506 | -1.16 | –
TwdlP | 1 | -0.58 | -0.72 | –
CG4734 | 1 | 0.463 | -2.03 | –
CG4734 | 2 | 0.242 | 0.76 | –
Pmm2 | 1 | 0.0139 | 0.47 | –
Nlg3 | 1 | -0.0493 | -0.744 | –
Nlg3 | 2 | -0.04 | -0.672 | –
Nlg3 | 3 | -0.219 | 0.0616 | –
lky | 1 | 0.0533 | -0.00349 | –
CG30178 | 1 | 3.83 | 0.316 | –
phtm | 1 | 0.47 | -0.355 | –
Rlb1 | 1 | -1.4 | -1.01 | –
CG11889 + CG11891 | 1 | 0.00882 | 0.226 | –
CG11889 + CG11891 | 2 | -0.0287 | -0.0922 | –
CG11122 | 1 | -0.579 | -1.45 | 1.45
Hacd2 | 1 | 0.0852 | 1.34 | –
Grl43a | 1 | 0.811 | 2.57 | –
Argk1 | 1 | 0.614 | -0.692 | –
Argk1 | 2 | 0.0166 | 0.377 | –
Argk1 | 3 | -2.43 | 0.272 | –
Argk1 | 4 | 2.41 | 2.85 | –
Argk1 | 5 | 0.91 | 1.04 | –
